Results taken from patent publication US20140093884A1, “Process for Identifying Novel Anti-Inflammatory Molecules with Reduced Direct Transrepression of Genes Induced by Glucocorticoids” (UNIVERSITE DE STRASBOURG, priority 2011, published 2014).
No constants are given. Whether binding was seen depends on the method and setting. Some results given as binding are weak or reduced against the parent protein; the word gives no strength.

Sequences of proteins named here, by UniProt entry; tags and fusion partners are left off.
UniProt Q9WU42: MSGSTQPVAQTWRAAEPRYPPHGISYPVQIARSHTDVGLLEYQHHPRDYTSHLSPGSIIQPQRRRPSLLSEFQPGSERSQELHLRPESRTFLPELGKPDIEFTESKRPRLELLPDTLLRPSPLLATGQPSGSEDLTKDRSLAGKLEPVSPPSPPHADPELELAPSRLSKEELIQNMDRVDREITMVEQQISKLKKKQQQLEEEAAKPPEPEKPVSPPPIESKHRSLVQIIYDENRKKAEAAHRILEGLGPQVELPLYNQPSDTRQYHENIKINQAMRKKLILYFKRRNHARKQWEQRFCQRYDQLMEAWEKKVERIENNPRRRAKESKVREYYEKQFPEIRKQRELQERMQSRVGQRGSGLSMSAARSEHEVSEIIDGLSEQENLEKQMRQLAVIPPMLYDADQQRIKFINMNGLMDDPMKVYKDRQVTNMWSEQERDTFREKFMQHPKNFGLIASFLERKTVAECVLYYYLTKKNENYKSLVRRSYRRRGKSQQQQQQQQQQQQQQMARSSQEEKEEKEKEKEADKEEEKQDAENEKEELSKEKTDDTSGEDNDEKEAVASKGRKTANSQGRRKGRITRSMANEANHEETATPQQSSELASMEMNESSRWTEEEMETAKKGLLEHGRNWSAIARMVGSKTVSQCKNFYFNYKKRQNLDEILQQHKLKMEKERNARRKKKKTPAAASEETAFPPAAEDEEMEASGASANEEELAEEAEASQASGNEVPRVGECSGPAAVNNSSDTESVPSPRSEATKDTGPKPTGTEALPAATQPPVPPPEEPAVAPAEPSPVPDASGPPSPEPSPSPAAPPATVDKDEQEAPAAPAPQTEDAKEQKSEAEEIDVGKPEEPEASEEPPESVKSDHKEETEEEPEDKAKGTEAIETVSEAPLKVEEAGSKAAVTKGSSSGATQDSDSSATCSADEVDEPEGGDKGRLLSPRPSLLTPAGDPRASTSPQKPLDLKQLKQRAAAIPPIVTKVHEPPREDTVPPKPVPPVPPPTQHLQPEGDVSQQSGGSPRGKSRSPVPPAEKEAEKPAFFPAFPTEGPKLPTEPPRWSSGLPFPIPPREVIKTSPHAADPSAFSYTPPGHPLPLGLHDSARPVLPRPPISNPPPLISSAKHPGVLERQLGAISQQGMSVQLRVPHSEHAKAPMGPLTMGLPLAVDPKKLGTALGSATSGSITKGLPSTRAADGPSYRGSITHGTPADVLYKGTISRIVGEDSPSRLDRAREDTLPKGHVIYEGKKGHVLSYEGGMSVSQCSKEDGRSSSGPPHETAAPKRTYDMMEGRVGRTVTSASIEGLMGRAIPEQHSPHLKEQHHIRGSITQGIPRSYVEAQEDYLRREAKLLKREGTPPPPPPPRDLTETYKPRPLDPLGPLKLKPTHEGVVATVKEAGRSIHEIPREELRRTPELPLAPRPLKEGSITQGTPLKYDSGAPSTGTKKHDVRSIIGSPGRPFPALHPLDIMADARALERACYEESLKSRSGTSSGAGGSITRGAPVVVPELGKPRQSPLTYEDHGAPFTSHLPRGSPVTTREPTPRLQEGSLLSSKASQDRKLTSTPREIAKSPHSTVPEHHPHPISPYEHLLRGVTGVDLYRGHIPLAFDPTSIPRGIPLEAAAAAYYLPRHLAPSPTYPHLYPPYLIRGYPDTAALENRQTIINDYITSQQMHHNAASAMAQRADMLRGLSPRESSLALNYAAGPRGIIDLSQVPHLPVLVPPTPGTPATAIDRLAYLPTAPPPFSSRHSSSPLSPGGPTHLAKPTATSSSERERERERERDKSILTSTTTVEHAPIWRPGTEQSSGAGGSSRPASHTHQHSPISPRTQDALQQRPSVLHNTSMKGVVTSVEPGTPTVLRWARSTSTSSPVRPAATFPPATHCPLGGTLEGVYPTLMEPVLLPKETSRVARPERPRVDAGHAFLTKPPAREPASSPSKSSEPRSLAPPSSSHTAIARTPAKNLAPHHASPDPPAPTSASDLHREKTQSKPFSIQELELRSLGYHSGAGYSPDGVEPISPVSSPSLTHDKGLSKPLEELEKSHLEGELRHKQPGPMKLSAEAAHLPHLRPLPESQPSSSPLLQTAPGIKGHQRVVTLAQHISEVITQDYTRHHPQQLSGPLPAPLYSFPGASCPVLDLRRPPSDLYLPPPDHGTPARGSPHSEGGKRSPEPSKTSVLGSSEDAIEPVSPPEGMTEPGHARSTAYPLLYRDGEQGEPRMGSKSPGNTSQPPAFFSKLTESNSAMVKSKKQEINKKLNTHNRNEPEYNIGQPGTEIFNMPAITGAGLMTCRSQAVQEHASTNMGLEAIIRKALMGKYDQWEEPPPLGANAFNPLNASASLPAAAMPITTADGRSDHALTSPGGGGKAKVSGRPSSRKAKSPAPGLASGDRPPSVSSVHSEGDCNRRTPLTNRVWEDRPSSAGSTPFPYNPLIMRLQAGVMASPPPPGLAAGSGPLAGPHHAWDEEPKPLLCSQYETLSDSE
UniProt Q60974: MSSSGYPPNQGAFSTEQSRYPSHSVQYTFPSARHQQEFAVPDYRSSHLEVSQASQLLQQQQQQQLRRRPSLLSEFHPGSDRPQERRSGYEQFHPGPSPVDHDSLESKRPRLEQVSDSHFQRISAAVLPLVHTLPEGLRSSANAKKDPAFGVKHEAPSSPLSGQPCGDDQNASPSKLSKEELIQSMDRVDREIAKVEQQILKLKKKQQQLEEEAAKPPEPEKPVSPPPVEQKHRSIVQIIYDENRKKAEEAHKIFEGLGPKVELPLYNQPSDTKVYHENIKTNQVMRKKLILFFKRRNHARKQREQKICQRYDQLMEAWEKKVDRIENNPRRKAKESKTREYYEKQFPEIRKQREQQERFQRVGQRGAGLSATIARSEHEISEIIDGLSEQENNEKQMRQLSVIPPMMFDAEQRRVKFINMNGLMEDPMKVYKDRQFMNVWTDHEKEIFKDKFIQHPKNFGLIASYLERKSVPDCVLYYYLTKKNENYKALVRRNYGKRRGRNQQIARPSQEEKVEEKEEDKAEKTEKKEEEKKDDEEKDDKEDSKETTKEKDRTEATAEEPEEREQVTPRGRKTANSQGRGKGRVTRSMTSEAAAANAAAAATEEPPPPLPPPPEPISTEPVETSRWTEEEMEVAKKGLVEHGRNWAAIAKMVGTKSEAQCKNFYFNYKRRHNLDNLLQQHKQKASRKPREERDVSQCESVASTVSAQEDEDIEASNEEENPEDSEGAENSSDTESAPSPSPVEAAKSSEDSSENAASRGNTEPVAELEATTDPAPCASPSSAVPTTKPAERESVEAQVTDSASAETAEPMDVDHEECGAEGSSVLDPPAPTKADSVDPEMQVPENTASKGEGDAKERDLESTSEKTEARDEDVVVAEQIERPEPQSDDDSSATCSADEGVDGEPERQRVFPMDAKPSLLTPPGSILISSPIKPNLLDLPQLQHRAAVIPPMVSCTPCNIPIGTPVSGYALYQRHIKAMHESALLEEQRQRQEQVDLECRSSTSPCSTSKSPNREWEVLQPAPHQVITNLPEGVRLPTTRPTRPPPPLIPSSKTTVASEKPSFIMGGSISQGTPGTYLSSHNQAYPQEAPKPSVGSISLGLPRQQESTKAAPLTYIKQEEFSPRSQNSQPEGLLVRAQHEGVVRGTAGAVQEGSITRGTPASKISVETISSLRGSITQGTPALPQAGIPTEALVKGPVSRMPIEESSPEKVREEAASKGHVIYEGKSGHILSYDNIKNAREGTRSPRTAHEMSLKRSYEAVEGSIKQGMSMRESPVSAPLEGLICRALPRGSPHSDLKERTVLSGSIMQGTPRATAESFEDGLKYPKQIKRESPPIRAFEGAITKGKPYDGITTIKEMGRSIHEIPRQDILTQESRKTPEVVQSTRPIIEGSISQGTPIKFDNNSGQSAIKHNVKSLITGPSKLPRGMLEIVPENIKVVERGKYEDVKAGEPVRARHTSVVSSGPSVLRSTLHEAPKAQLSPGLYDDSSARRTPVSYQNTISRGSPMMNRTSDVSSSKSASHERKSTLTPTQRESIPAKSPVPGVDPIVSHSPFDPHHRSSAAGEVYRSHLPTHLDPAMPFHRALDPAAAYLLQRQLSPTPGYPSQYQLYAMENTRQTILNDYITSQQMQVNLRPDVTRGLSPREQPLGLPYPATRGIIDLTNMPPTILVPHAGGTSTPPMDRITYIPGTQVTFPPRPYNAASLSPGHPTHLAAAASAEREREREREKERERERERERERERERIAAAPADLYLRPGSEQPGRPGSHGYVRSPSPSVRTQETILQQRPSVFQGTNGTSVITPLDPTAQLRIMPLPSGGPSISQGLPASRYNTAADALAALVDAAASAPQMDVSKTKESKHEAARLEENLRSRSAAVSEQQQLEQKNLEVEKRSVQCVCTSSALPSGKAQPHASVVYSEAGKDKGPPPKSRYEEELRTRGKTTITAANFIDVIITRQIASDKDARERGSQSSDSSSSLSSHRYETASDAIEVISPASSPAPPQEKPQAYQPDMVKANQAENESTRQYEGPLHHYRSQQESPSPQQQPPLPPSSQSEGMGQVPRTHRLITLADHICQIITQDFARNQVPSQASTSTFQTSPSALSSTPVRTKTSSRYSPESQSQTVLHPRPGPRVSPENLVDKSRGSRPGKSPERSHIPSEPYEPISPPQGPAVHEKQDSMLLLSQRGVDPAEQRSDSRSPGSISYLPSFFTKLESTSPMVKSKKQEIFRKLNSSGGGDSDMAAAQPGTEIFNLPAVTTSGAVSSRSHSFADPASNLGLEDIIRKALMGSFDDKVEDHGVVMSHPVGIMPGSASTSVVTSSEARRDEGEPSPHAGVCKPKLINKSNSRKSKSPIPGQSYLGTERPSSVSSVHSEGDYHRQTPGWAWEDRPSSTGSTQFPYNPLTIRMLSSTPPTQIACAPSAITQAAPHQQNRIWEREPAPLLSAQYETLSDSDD
UniProt P06537: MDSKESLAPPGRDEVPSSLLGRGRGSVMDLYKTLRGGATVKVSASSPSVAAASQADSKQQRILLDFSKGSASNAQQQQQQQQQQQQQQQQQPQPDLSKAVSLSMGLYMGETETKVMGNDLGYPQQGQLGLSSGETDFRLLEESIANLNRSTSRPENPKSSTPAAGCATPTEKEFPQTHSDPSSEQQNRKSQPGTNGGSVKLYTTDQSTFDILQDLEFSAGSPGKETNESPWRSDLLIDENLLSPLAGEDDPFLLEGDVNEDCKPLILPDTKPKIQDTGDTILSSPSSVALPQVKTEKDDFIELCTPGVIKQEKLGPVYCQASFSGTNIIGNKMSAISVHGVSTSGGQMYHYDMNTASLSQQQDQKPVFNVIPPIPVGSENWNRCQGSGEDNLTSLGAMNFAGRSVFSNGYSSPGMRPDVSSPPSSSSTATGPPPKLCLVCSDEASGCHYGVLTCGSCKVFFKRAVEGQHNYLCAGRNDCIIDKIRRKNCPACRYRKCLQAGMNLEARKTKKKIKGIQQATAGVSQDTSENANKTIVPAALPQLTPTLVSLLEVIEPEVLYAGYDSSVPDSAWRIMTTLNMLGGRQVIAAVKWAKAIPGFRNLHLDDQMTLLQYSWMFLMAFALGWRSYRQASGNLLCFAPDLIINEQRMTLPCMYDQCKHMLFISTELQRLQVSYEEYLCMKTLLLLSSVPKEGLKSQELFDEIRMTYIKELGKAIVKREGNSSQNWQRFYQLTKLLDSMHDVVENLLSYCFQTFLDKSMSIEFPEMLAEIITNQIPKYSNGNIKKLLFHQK

Assays:
[1] = target: SMRT corepressor, endogenous, in tissues of treated mice (mouse) (UniProt Q9WU42); assay: ChIP on minsr IR1 nGRE1 and 2, Dex-treated mice (co-occupancy of a DNA element)
[2] = target: NCoR corepressor, endogenous, in tissues of treated mice (mouse) (UniProt Q60974); assay: as above
[3] = target: SMRT corepressor, endogenous, in tissues of treated mice (mouse) (UniProt Q9WU42); assay: ChIP on nGRE regions, mice treated with RU24858 or Dex (co-occupancy of a DNA element)
[4] = target: NCoR corepressor, endogenous, in tissues of treated mice (mouse) (UniProt Q60974); assay: as above
[5] = target: SMRT corepressor, endogenous, in tissues of treated mice (mouse) (UniProt Q9WU42); assay: ChIP on mK5 IR1 nGRE3 region, epidermis of Dex-treated mice (co-occupancy of a DNA element)

- binding [1]: binds
- binding [2]: binds
- binding [3]: binds
- binding [4]: binds
- binding [5]: binds
Substance: glucocorticoid receptor (GR), endogenous, in tissues of Dex- or RU24858-treated mice (from UniProt P06537 1-792)
